Source: the supplement of paper PMC7661543
± gives the standard deviation of the averaged measurements. Differences between knockout arms are mostly noise.

Columns and labels:
Experiment in all cases: relative cell number vs DMSO control (72 h) (% of DMSO); higher = less growth inhibition (more cells)
MDA-MB-231 = system: MDA-MB-231
Description: (§1)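 QMAP-Seq: a pool of 5 breast cancer cell lines (ZR-75-1, SKBR3, HCC-38, MDA-MB-231, BT-20), each carrying 12 doxycycline-inducible Cas9 sgRNA perturbations (11 knockouts plus non-targeting sgNT), was treated with compounds for 72 h at four 10-fold doses (10 nM-10 uM or 1 nM-1 uM range). Barcodes were amplified and sequenced, and cell number was interpolated from 293T spike-in standard curves. The result is expressed as % of the median of DMSO wells. Two biological replicates.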

SKBR3 = system: SKBR3
Description: as §1

ZR-75-1 = system: ZR-75-1
Description: as §1

c1cc(Nc2cc(C3CC3)[nH]n2)nc(Nc2ccc3nc[nH]c3c2)n1 [APY29]
relative cell number
Settings | MDA-MB-231 | SKBR3 | ZR-75-1
sgRNA knockout: sgATF3, 10 nM | 99.3 ± 9.5 | 108 ± 6.7 | 122 ± 52
sgRNA knockout: sgATF3, 100 nM | 55.3 ± 5.8 | 63.2 ± 16 | 80.5 ± 4.6
sgRNA knockout: sgATF3, 1000 nM | 15.7 ± 1.5 | 15.1 ± 4.5 | 30.5 ± 2
sgRNA knockout: sgATF3, 10000 nM | 11.2 ± 1.7 | 8.072 ± 0.061 | 13.3 ± 3.6
sgRNA knockout: sgATF4, 10 nM | 134 ± 18 | 89 ± 12 | 123 ± 18
sgRNA knockout: sgATF4, 100 nM | 55.3 ± 1.5 | 45.4 ± 4.5 | 74 ± 17
sgRNA knockout: sgATF4, 1000 nM | 22.6 ± 11 | 14.3 ± 0.42 | 40.7 ± 6.7
sgRNA knockout: sgATF4, 10000 nM | 16.7 ± 2.7 | 6.92 ± 0.14 | 24.8 ± 1.6
sgRNA knockout: sgATF6, 10 nM | 69.5 ± 2 | 107 ± 6 | 157 ± 22
sgRNA knockout: sgATF6, 100 nM | 67.4 ± 7.2 | 54.4 ± 20 | 83.8 ± 5.2
sgRNA knockout: sgATF6, 1000 nM | 14.4 ± 5.5 | 13.8 ± 5 | 28.1 ± 4.6
sgRNA knockout: sgATF6, 10000 nM | 14.1 ± 5.2 | 7.62 ± 0.75 | 18.3 ± 1.4
sgRNA knockout: sgATG7, 10 nM | 80.7 ± 20 | 97 ± 34 | 119 ± 6.2
sgRNA knockout: sgATG7, 100 nM | 55.2 ± 14 | 38.7 ± 0.7 | 61 ± 3.6
sgRNA knockout: sgATG7, 1000 nM | 16.2 ± 7.1 | 14.6 ± 1 | 27.4 ± 11
sgRNA knockout: sgATG7, 10000 nM | 13.9 ± 0.23 | 6.51 ± 0.11 | 17.4 ± 3.8
sgRNA knockout: sgERN1, 10 nM | 88.6 ± 4 | 103 ± 6.6 | 110 ± 31
sgRNA knockout: sgERN1, 100 nM | 53.1 ± 1.5 | 54.8 ± 2.6 | 78.4 ± 1.7
sgRNA knockout: sgERN1, 1000 nM | 18.2 ± 3.7 | 15.3 ± 2.4 | 25.3 ± 5.2
sgRNA knockout: sgERN1, 10000 nM | 11 ± 0.28 | 6.23 ± 3.2 | 26.2 ± 3.7
sgRNA knockout: sgHSF1, 10 nM | 78.4 ± 3.1 | 84.5 ± 0.95 | –
sgRNA knockout: sgHSF1, 100 nM | 52.4 ± 15 | 38.2 ± 11 | –
sgRNA knockout: sgHSF1, 1000 nM | 20.2 ± 5.2 | 15.8 ± 2.5 | –
sgRNA knockout: sgHSF1, 10000 nM | 8.91 ± 1.1 | 5.92 ± 0.37 | –
sgRNA knockout: sgHSF2, 10 nM | 101 ± 9.3 | 86.7 ± 1.6 | 131 ± 67
sgRNA knockout: sgHSF2, 100 nM | 44.1 ± 3 | 41.1 ± 2.3 | 60.9 ± 11
sgRNA knockout: sgHSF2, 1000 nM | 14.6 ± 3.9 | 13.8 ± 4 | 26.1 ± 8.4
sgRNA knockout: sgHSF2, 10000 nM | 10.7 ± 2.3 | 6.75 ± 2.3 | 17.4 ± 2
sgRNA knockout: sgKEAP1, 10 nM | 108 ± 19 | 92.8 ± 4.1 | –
sgRNA knockout: sgKEAP1, 100 nM | 85.3 ± 3.9 | 53.6 ± 7.6 | –
sgRNA knockout: sgKEAP1, 1000 nM | 18.9 ± 3.8 | 14 ± 4.2 | –
sgRNA knockout: sgKEAP1, 10000 nM | 11.1 ± 1.4 | 6.7 ± 0.72 | –
sgRNA knockout: sgNFE2L2, 10 nM | 82.7 ± 13 | 89.8 ± 8.1 | 103 ± 10
sgRNA knockout: sgNFE2L2, 100 nM | 66.3 ± 9.9 | 68.2 ± 4.6 | 71.6 ± 12
sgRNA knockout: sgNFE2L2, 1000 nM | 21.3 ± 3.6 | 15.2 ± 0.37 | 27.8 ± 8.4
sgRNA knockout: sgNFE2L2, 10000 nM | 10.8 ± 0.36 | 5.54 ± 1.4 | 19.4 ± 4.2
sgRNA knockout: sgSLC35F2, 10 nM | 94.3 ± 11 | 106 ± 4.5 | 109 ± 4.1
sgRNA knockout: sgSLC35F2, 100 nM | 54 ± 18 | 52.3 ± 17 | 46.7 ± 32
sgRNA knockout: sgSLC35F2, 1000 nM | 16.3 ± 2.2 | 11.3 ± 2.5 | 23.6 ± 3.6
sgRNA knockout: sgSLC35F2, 10000 nM | 11.3 ± 2.3 | 4.42 ± 0.8 | 23.4 ± 4
sgRNA knockout: sgXBP1, 10 nM | 96.7 ± 22 | 102 ± 22 | 118 ± 42
sgRNA knockout: sgXBP1, 100 nM | 60.5 ± 2.2 | 46.6 ± 9.3 | 75.9 ± 6.5
sgRNA knockout: sgXBP1, 1000 nM | 18.83 ± 0.15 | 11.3 ± 4.1 | 25.8 ± 4.6
sgRNA knockout: sgXBP1, 10000 nM | 14.2 ± 1.5 | 7.2 ± 6.7 | 17.7 ± 1.5
